The list shows a part of the results. Values are worked out from sequencing counts and are noisy.
T1: Homer1 EVH1 domain
T1 chain: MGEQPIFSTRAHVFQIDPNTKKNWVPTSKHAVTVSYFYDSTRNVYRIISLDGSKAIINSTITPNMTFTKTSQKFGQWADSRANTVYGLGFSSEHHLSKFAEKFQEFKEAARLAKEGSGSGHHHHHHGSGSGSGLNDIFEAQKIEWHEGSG


Target: T1, Homer1 EVH1 domain
Assay: enrichment score (AUC of log2 frequency ratio across FACS sorting rounds) (log2 AUC); higher = stronger enrichment for Homer1 EVH1 binding

Row | Binder | enrichment score
1 | VLPIQKYLEPVYFYIYTLFGLQAIYVTALYITSWLQ | 4.19
2 | NPSCPMIPLYRNLPDHSAATKPSLFLFLVSLLHIFF | -4.11
3 | PSVFSFLNPLSPDIWMYVLLAYLGVSCVLFVIARFS | 1.78
4 | SPTDPVVPAVPIGPPPAGFRDILLREGTEGFARTVR | 6.39
5 | MLSRSRCVSRAFSRSLSAFQKGNCPLGRRSLPGVSF | -0.871
6 | YIGAGICAGLALALIFGALIFKWYSHSKEKIQNLSL | 1.34
7 | WFWILLGLAYFASVLTTIGNWLRVVSRRTRAEMGGL | 0.744
8 | TVLFTLTSVVVLVITTDWISWDKLNRGFLPSDEVSR | -0.0837
9 | EWAYGYRGKDCRANVYLLPTGEIVYFIASVVVLFNY | -2.84
10 | SMDYLGASESEIVYLALLIPYLHFLIFLFILRCLEM | 0.114
11 | LPLLLKDELLMPSVVTTMAFFIACVTSFSIFEKTSE | 3.11
12 | NIEITPTPAQPAPALSPALGPTLSVLMAMLAGWSVL | 4.56
13 | DEKVSWWESLVLVLMYLIYIVIMKYNACIHQCFERR | 0.968
14 | FLPLALILFAIVSIELTIRNRDLGGQAGPQRAMRVL | 3.33
15 | TFGNTKPLSHFVSEPGPQKMPSMPTTSRQPSLLHYL | -2.62
16 | PWLLPLWCYASGVLLTFAMSCTAHVSSCLSLRLRAT | 1.83
17 | FFDPLYPGTKYELGPALYLGWSASLISILGGLCLCS | -1.08
18 | KMHFFNVPEPDGHIISPLLAGFYMFWTLIILLQVLI | 3.89
19 | MIWRSRAGAELFSLMALWEWIALSLHCWVLAVAAVS | 0.535
20 | MLLFVLTCLLAVFPAISTKSPIFGPEEVNSVEGNSV | 0.0908
21 | MAAGPIRVVLVLLGVLSACAASGHGSVAERKAGGEA | -1.31
22 | SSTTVGFVVPFTIMLTCYFFIAQTIAGHFRKERIEG | 4.09

Row | Binder | enrichment score
23 | IMGSGILGLSYAMANTGIILFIIMLLAVAILSLYSV | 1.05
24 | GSQGLGRHLPAERVAEFRRALLHYLDFGQKQAFGRL | 3.92
25 | RRGPRAVTSRGRAPAAQISPAPPAILTPVSRLQSAL | 0.408
26 | YLLGTSGVLFILTGIFVLIPVSWTANIIIRDFYNPA | 2.66
27 | WSYILGWVAVLMTFFAGIFYMCAYRVHECRRLSTPR | 1.37
28 | MASQLTQRGALFLLFFLTPAVTPTWYAGSGYYPDEN | 2.25
29 | SERKLLSKDDTSPPKDKGTWRKGIPSIMRKTFEKKP | -0.675
30 | PHWGLYIFSLAQLFYTTVLVLCYVIYFTKLLGSPES | 4.12
31 | DLEKVKQRLIEIANHVDKFYRPLNIRIGVGRRGSVE | 3.1
32 | DPEYWKTILSCIYVFIVFGFTSFIMVIVHERVPDMQ | 0.996
33 | GINIMVPSCTILISYVFIVTSILHIKSTQGRSKAFS | 2.37
34 | PSTQPEEGRAPPPALGGGVWPFLPFPRPPEAPTQFS | -1.54
35 | IASLVVWCMAVGISYISVYDHQGIFKRNNSRLMDEI | 2.36
36 | ITSFSFFIALAIILGISSKYAPDENCPDQNPRFRNW | 3.27
37 | HMFVKLKVIAESLSVILKSVLTAFLVLWLPHWGLYI | -0.881
38 | YDKLSILKTLLSLTSFIPFSLFLTSLLFLFLSLVRH | 1.29
39 | IKKKANLNALDRYGRTALILAVCCGSASIVSLLLEQ | -0.945
40 | PLLALGCLAVGIWGLVCCCCGGSGAGGARGAFGYGN | 3.43
41 | RRGGVTLGHKVLVCGAGAIGVVTLLVAKAMGAAQVV | 2.05
42 | MKAPAVLAPGILVLLFTLVQRSNGECKEALAKSEMN | 0.397
43 | MENVTTMNEFLLLGLTGVQELQPFFFGIFLIIYLIN | 2.67
44 | LGCIALLWVVKSTAASLAFPFLLLLTVPLRHCLLPR | -0.942

— the supplement of paper PMC11237882
